From PubChem BioAssay AID1347075 (National Center for Advancing Translational Sciences (NCATS), 2019)
Screen size: about 400,000 compounds; about 5,500 (1.4%) were called active. Inconclusive results, whose numbers are uncertain, are shown with a selection of clear calls. The call rests on the fitted dose curve; in most records, active means well fitted cell-killing curve with a large enough effect; inconclusive means small, poorly fitted or top-dose-only effect, or effect the other way; inactive means flat fitted curve, though single readings scatter. Potencies beside an inconclusive call are fits to weak or partial responses and may not hold up.

Assay: qHTS assay for MDR1-selective chemotherapeutics: Primary screen using the parental adenocarcinoma cell KB-3-1; further: nearly all actives have a fitted effect of over 60% in size
Settings: KB-3-1 viability, CellTiter-Glo ATP luminescence, 72 h; activity change, negative = cytotoxic: at 46.1 µM (top of the series)
How it was run: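 Cells are dispensed, compounds pinned in, plates held at 37 °C for 72 h, then CellTiter-Glo is added and luminescence read after 10 minutes. Cell line: parental KB-3-1 in phenol-red-free DMEM, 10% FBS.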
On the % scale 0 is the no-effect control and ±100 the full control effect; potency means the concentration at half of the fitted maximal effect.

Row | Compound | Potency | activity change, negative = cytotoxic
1 | CCOc1ccc(-n2nc3cc(C)c(NC(=O)c4cc(OCC)c(OCC)c(OCC)c4)cc3n2)cc1 | inactive | 
2 | Cc1c(CCOC(=O)C23CC4(C)CC(C)(CC(C)(C4)C2)C3)sc[n+]1CC(=O)c1ccccc1 | inconclusive: 18.4 µM [cytotoxic, single point] | 
3 | CCc1nc2ccc(C(=O)Nc3cccc(NS(C)(=O)=O)c3)cn2c1N(CC)Cc1cccc(Br)c1 | inconclusive: 29.1 µM [cytotoxic, single point] | 
4 | O=C(N/N=C/c1ccc(O)cc1O)c1ccc(NC(=O)C2CCCCC2)cc1 | inconclusive: 29.1 µM [cytotoxic, single point] | 
5 | COc1ccc(NS(=O)(=O)c2cccc(NC(=O)C3=NN(c4ccccc4)C(=O)CC3)c2)cc1 | inconclusive: 14.6 µM [cytotoxic, partial curve] | 
6 | COc1ccccc1NS(=O)(=O)c1cc(NC(C)=O)ccc1N1CCCCC1 | inconclusive: 23.1 µM [cytotoxic, single point] | 
7 | COc1ccc(S(=O)(=O)N(C)CC(=O)Nc2c(F)cccc2F)cc1 | inactive | 
8 | COCc1cc(C)nc(SCC(=O)N2CCC(C)CC2)c1C#N | inconclusive: 29.1 µM [cytotoxic, single point] | 
9 | Cc1cc(C)cc(NS(=O)(=O)c2ccc3[nH]cc(C(=O)NCc4ccccc4Cl)c(=O)c3c2)c1 | inconclusive: 23.1 µM [cytotoxic, single point] | 
10 | CC(C)(c1ccccc1)c1ccc(OCCCN2CCNCC2)cc1 | inconclusive: 16.4 µM [cytotoxic, single point] | 
11 | COc1ccc(CN(C)C(=O)CCC(=O)N2CCN(S(=O)(=O)c3ccc(Cl)cc3)CC2)c(OC)c1 | inconclusive: 29.1 µM [cytotoxic, single point] | 
12 | O=C(Cc1ccc(NC(=O)C2CCN(C(=O)c3ccccc3)CC2)cc1)Nc1ccc(C(=O)N2CCOCC2)cc1 | inconclusive: 23.1 µM [rising, single point] | 
13 | CNC(=O)N(C1=NCC(C)(C)S1)c1ccc(F)c(Cl)c1 | inconclusive: 23.1 µM [cytotoxic, partial curve, poor fit] | 
14 | O=C(NC1CCCN(C2Cc3ccccc3C2)C1)c1ccc(F)cc1Cl (configuration not stated) | inactive | 
15 | N#Cc1c(NC(=O)CSc2ncn[nH]2)sc2c1CCCC2 | inconclusive: 29.1 µM [cytotoxic, single point] | 
16 | OCC1CCCN(C(=S)Nc2ccc(Nc3ccccc3)cc2)C1 (configuration not stated) | inactive | 
17 | C=CCN1CC(=O)N2Cc3[nH]c4ccccc4c3C[C@H]2C1=O | inactive | 
18 | CCOC(=O)C1=C(C)NC(=S)NC1c1ccc(OCC(=O)N2CCCCC2)cc1 (configuration not stated) | inconclusive: 29.1 µM [rising, single point] | 
19 | CCOC(=O)N1CCN(c2ccc(S(=O)(=O)N3CCC(C)CC3)cc2[N+](=O)[O-])CC1 | inconclusive: 16.4 µM [cytotoxic, partial curve] | 
20 | Cc1ccc(NC(=O)c2nc[nH]c2C(=O)N[C@@H](C)C(=O)OC(C)(C)C)cc1 | inconclusive: 25.9 µM [cytotoxic, single point] | 
21 | CCOc1ccc2c(c1)NC(c1cccs1)=NC(c1ccc(F)cc1)=N2 | inactive | 
22 | CN(C)C(CNS(=O)(=O)c1cc([N+](=O)[O-])ccc1Cl)c1ccco1 (configuration not stated) | inactive | 
23 | COc1cc(C(C[N+](=O)[O-])c2c(C)[nH]c3ccccc23)ccc1O (configuration not stated) | inconclusive: 23.1 µM [rising, single point] | 

Of the compounds above, 5 have an NH in an aromatic ring.
Row | Compound | Potency | activity change, negative = cytotoxic
9 | Cc1cc(C)cc(NS(=O)(=O)c2ccc3[nH]cc(C(=O)NCc4ccccc4Cl)c(=O)c3c2)c1 | inconclusive: 23.1 µM [cytotoxic, single point] | 
15 | N#Cc1c(NC(=O)CSc2ncn[nH]2)sc2c1CCCC2 | inconclusive: 29.1 µM [cytotoxic, single point] | 
17 | C=CCN1CC(=O)N2Cc3[nH]c4ccccc4c3C[C@H]2C1=O | inactive | 
20 | Cc1ccc(NC(=O)c2nc[nH]c2C(=O)N[C@@H](C)C(=O)OC(C)(C)C)cc1 | inconclusive: 25.9 µM [cytotoxic, single point] | 
23 | COc1cc(C(C[N+](=O)[O-])c2c(C)[nH]c3ccccc23)ccc1O (configuration not stated) | inconclusive: 23.1 µM [rising, single point] | 

Further records follow:

Row | Compound | Potency | activity change, negative = cytotoxic
24 | O=C(/C=C/[C@H]1O[C@@H](n2cnc3c(NC(=O)c4ccccc4)ncnc32)[C@H](O)[C@@H]1O)N[C@@H](CO)Cc1c[nH]c2ccccc12 | inactive | 
25 | COc1ccc(NS(=O)(=O)c2ccc(N3CCOCC3)c(NC(=O)c3ccc(F)cc3)c2)cc1 | inconclusive: 18.4 µM [cytotoxic, single point] | 
26 | O=C1CSC2(C(=O)N(Cc3ccccc3)c3ccccc32)N1c1ccc(Cl)cc1 (configuration not stated) | inconclusive: 25.9 µM [cytotoxic, single point] | 
27 | CC(C)OC(=O)N(C)C[C@@H]1OCc2cn(nn2)CCCC(=O)N([C@H](C)CO)C[C@H]1C | inconclusive: 29.1 µM [rising, single point] | 
28 | COc1ccc(-c2csc(NC(=O)CSc3nnc(Nc4ccccc4C)s3)n2)cc1 | inactive | 
29 | COc1ccc(NC(=S)N/C(=N/CS(=O)(=O)c2ccccc2)c2ccccc2)cc1 | inactive | 
30 | COC(=O)Cn1c(CN2CCN(c3ccc(F)cc3)CC2)nc2c1c(=O)n(C)c(=O)n2C | inconclusive: 20.6 µM [cytotoxic, single point] | 
31 | CCCCCCCCN1C(=O)[C@H](CC(=O)NCc2cccs2)C[C@@]2(C(=O)OCC)CCCC=C12 | inconclusive: 29.1 µM [cytotoxic, single point] | 
32 | CCOCCCNC(=S)NNC(=O)CCn1nc(C)c(Br)c1C | inactive | 
33 | Cc1ccc(/C=C2/NC(=O)N(Cc3ccccc3F)C2=O)s1 | inactive | 
34 | O=C(CN1C(=O)COc2ccc(S(=O)(=O)Nc3ccccc3)cc21)Nc1cccc(Cl)c1 | inactive | 
35 | CCCCCCSc1ccc([C@H]2N[C@@](C)(C(=O)OC)[C@H]3C(=O)N(C)C(=O)[C@@H]23)cc1 | inconclusive: 25.9 µM [cytotoxic, single point] | 
36 | CCN1C(=O)c2cccc3c(S(=O)(=O)NCC4CCCO4)ccc1c23 (configuration not stated) | inconclusive: 32.6 µM [cytotoxic, single point] | 
37 | CCN1C[C@@H]2[C@@H]3C(=O)N(C)C(=O)[C@@H]3[C@](C)(C1=O)N2C(=O)c1ccc(C)cc1 | inconclusive: 29.1 µM [rising, single point] | 
38 | O=C(O)C1CCc2nc(NCc3ccccc3)nc(NCc3ccccc3)c2C1 (configuration not stated) | inconclusive: 20.6 µM [rising, partial curve, poor fit] | 
39 | CC(C)(C)OC(=O)NCCCCCNC(=O)c1nc[nH]c1C(=O)NCc1ccc(CNC(=O)OC(C)(C)C)cc1 | inconclusive: 20.6 µM [cytotoxic, partial curve, poor fit] | 
40 | COc1ccc(S(=O)(=O)N2CCOCC2)cc1NC(=O)c1cccc2c(=O)c(C)c(-c3ccccc3)oc12 | inconclusive: 11.6 µM [cytotoxic, partial curve] | 
41 | CC(=O)Nc1ccc(Oc2cc(C#N)c(C#N)cc2N2CCCCCC2)cc1 | inconclusive: 29.1 µM [cytotoxic, single point] | 
42 | COc1ccc(NC(=O)C(Cl)=C(Cl)Cl)cn1 | inconclusive: 32.6 µM [cytotoxic, single point] | 
43 | O=C(NCC(c1cccs1)N1CCOCC1)c1ccc(Cl)cc1 (configuration not stated) | inconclusive: 25.9 µM [cytotoxic, single point] | 
44 | O=C(Nc1ccc2ccccc2c1)Nc1nnc(-c2ccccc2F)s1 |  | inconclusive: -19.6%
45 | O=[N+]([O-])c1cccc(/C=N/Nc2nc(N3CCOCC3)nc(N3CCOCC3)n2)c1 | inactive | 
46 | COCCNc1nc(-n2nc(C)cc2C)nc2sc3c(c12)CCCC3 | active: 11.6 µM | 

Row | Compound | Potency | activity change, negative = cytotoxic
47 | O=C(O)CCSc1nnc(SCC(=O)NC2CCS(=O)(=O)C2)s1 (configuration not stated) | inactive | 
48 | O=C(COC(=O)c1ccc[nH]c1=O)NCCc1ccc(F)cc1 | inactive | 
49 | CCCCC(=O)NC(=S)NNC(=O)c1ccc(OC)cc1 | active: 23.1 µM | 
50 | O=c1oc2ccccc2c(O)c1/C=C1\C=Nc2ccccc21 | inconclusive: 20.6 µM [cytotoxic, single point] | 
51 | CCNC(=O)C1CCCN(C(=O)c2ccccc2OC(F)(F)F)CC1 (configuration not stated) | inactive | 
52 | N#Cc1c(-c2ccc(Cl)cc2)n(O)c2ccccc12 | active: 7.31 µM | 
53 | O=C(NNC(=S)NC(=O)c1ccccc1[N+](=O)[O-])c1ccccc1[N+](=O)[O-] | inconclusive: 20.6 µM [rising, single point] | 
54 | COc1ccc2cc(CN(CC3CCCO3)C(=S)Nc3ccccc3)c(=O)[nH]c2c1 (configuration not stated) | active: 5.8 µM | 
55 | CCn1c(C(=O)N2CCCC(C(=O)N3CCN(c4cc(C)ccc4C)CC3)C2)cc2sccc21 (configuration not stated) | inconclusive: 23.1 µM [cytotoxic, single point] | 
56 | O=C(O)c1ccc(CSc2nnc(-c3ccncc3)n2-c2ccc(Cl)cc2)cc1 |  | inconclusive: -54.7%
57 | COc1ccc(N2CCN(C(=O)[C@H](C)N3C(=O)C4CC=CCC4C3=O)CC2)cc1 (some centres not stated) | inconclusive: 0.0651 µM [rising, full curve] | 
58 | C=C1C(=O)C23C(O)C1CCC2C12CCCC(C)(COC(C)=O)C1C(O)C3(O)OC2 (configuration not stated) | active: 13 µM | 
59 | COc1ccccc1N(CC(=O)N/N=C(\C)c1ccccc1O)S(=O)(=O)c1ccc(C)cc1 | inconclusive: 29.1 µM [cytotoxic, single point] | 
60 | CC1(C(=O)NS(=O)(=O)c2cccc(F)c2)CCN1C(=O)c1ccccc1CCc1ccccc1 (configuration not stated) | inactive | 
61 | CC(Sc1n[nH]c(N)n1)C(=O)NC1CCCCC1C (configuration not stated) | inactive | 
62 | O=C(Nc1nccs1)c1ccc(Br)c(S(=O)(=O)N2CCOCC2)c1 | inactive | 
63 | CCSc1nnc(NC(=O)NC(CC)(C(F)(F)F)C(F)(F)F)s1 | inconclusive: 29.1 µM [cytotoxic, single point] | 
64 | COc1ccc(Cl)cc1NC(=O)CCCN1C(=O)C(c2ccccc2)Oc2cccnc21 (configuration not stated) | inconclusive: 20.6 µM [cytotoxic, single point] | 
65 | COc1ccc2[nH]c3c(NCCC4=CCCCC4)ncnc3c2c1 | active: 3.66 µM | 
66 | CN(C)C(C)(C)C#CC(O)(c1ccccc1)c1ccccc1 |  | inconclusive: -71.9%
67 | COc1cc2c(cc1OC)C(COc1cc(C)cc(C)c1)N(C(=O)COc1ccccc1)CC2 (configuration not stated) | inconclusive: 16.4 µM [cytotoxic, partial curve] | 
